The results in this text go back to article PMC10894231.

By UniProt entry, the sequences of proteins in these tests, tags left out.
UniProt Q99873: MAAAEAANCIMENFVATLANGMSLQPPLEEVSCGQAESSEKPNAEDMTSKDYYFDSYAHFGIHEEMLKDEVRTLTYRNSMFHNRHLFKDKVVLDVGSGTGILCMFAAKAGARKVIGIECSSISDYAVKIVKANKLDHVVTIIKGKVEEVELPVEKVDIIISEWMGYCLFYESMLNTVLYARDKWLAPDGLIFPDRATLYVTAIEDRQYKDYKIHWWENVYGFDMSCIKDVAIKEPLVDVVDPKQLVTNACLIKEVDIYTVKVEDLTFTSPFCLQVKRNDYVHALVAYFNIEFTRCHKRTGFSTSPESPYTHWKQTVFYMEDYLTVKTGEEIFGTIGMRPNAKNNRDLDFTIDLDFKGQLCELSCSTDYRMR

In this test the target is T1, Flag-PGK1 wild type (UniProt P00558).
T1 sequence: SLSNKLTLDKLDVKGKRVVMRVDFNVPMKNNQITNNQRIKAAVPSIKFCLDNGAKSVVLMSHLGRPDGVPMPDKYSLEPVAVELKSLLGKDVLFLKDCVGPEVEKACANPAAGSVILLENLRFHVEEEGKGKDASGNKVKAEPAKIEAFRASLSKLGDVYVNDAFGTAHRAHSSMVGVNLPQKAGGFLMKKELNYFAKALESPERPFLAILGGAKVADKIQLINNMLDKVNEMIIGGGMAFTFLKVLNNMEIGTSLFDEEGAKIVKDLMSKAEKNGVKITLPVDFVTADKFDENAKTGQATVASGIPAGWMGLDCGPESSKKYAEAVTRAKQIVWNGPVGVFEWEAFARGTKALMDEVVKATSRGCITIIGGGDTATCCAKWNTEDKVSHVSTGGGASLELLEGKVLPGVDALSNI
Briefly: co-IP; anti-FLAG beads, IP of Flag-PGK1 from transfected HEK293T and HCT116 cells, western blot of the partner; for ERK also HCT116 cells with PRMT1 overexpressed, PRMT1 silenced, or treated with the ERK inhibitor SCH772984.

These are yes or no findings as the source states them, for the method shown. Binding seen in cells or lysates may run through a third protein. Some entries that bind do so weakly or less than the wild type. Tags and fused reporters may be left off the sequences shown.

On to “PRMT1, endogenous (from UniProt Q99873 1-371) (enzyme)”, for which the binding entry was “binds”.
